Source: PMC12582567
For at least one entry, the source does not settle the construct or the ends of the probe. For part of these data: The comparison behind a weaker result is the experiment's own reference, which may not be listed here.

Sequences of proteins named here, by UniProt entry; tags and fusion partners are left off. A change or cut given only in a name is not applied to a line headed by its entry.
UniProt O80982: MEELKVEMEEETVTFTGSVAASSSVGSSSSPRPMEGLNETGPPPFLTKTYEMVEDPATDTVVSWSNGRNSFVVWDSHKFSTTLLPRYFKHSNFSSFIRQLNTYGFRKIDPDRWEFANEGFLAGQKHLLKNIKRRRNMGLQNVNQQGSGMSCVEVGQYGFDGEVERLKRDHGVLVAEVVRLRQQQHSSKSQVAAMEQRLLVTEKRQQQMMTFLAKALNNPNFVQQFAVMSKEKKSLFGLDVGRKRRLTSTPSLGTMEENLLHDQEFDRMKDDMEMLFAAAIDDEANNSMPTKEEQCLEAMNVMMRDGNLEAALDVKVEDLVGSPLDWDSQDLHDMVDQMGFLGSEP

Legend:
[1] = biological target: GST-S-HsfA2 (Arabidopsis thaliana Col-0) (UniProt J7G1E7); test: EMSA; conditions: weak specific band, GST nonspecific band also present; EMSA: LightShift kit 1x binding buffer, 50 ng poly(dI-dC), 2.5% glycerol, 0.05% NP-40, 5 mM MgCl2, 100 ng protein, 1.5 ng probe, 30 min, room temperature; recombinant protein; protein details: N-terminal GST (pGEX-4T); label: 5' biotin
[2] = biological target: GST-S-HsfA2 (Arabidopsis thaliana Col-0) (UniProt J7G1E7); test: competition with a labelled probe; conditions: unlabelled HRE reduced the complex on the HRE probe; EMSA: LightShift kit 1x binding buffer, 50 ng poly(dI-dC), 2.5% glycerol, 0.05% NP-40, 5 mM MgCl2, 100 ng protein, 1.5 ng probe, 30 min, room temperature; recombinant protein; protein details: N-terminal GST (pGEX-4T)
[3] = biological target: His6-HsfA2 (Arabidopsis thaliana Col-0) (UniProt O80982); test: streptavidin-agarose pull-down; conditions: His6-HsfA2 prebound with GST-S-HsfA2 (4 or 12 hr); pull-down: 50 mM Tris-HCl pH 7.5, 100 mM NaCl, 0.1% Triton X-100, poly(dI-dC), 25 C; recombinant protein; protein details: His6 (pET-28a); label: 5' biotin

“GAAGAAGGAAGAAGGAAGAAG (double strand) [3xHRE probe]”: binds [1].

“GAAGAAGGAAGAAGGAAGAAG (double strand) [unlabelled 3xHRE competitor]”: binds [2].

“TCGACTTCTAGAAGCTTCCAGAAATTAG (double strand) [HSE probe]”: binds more weakly [3].
